Experimental data reported in PubChem BioAssay AID1487 (National Center for Advancing Translational Sciences (NCATS), 2009).
Several values for one entry are separate records, joined by “and”; a condition that tells them apart may be missing. Identical values can stand only once. The list shows a part of the results. Further columns of the screen follow, without active or inactive calls. The list favours compounds with an active or inconclusive main result. Potencies come from curve fits of mixed quality, noted in brackets.

Assay: qHTS Assay for Modulators of Lamin A Splicing
Conditions: HeLa LMNA splicing GFP/RFP minigene ratio, 48 h
Outline: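 Read-out is the ratio of GFP to DsRed2 object intensity, acquired by 488 nm laser-scanning cytometry on HeLa lamin A-EGFP minigene reporter cells. Compound incubation 48 hrs at 37 °C in Opti-MEM with 2% FBS; DMSO 0.5% final.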

[1] = measured here: GFP splicing reporter channel
[2] = measured here: RFP viability control channel

SMILES	AC50 [1]	AC50 [2]
S=C(c1cn(CCOc2cccc3ccccc23)c2ccccc12)N1CCCC1	7.08 µM [rising, partial curve, poor fit]	22.4 µM [rising, partial curve]
CC(C)(C)n1nnnc1C(c1ccccc1F)N(Cc1ccco1)CC1CCCO1 (centres undefined)	11.2 µM [rising, partial curve]	
CCC(C)(C)n1nnnc1C(c1ccncc1)N1CCN(c2cccc(OC)c2)CC1 (centres undefined)		35.5 µM [rising, single point]
COC(=O)Nc1nc2ccc(SC(C)C)cc2[nH]1	2 µM [falling, full curve]	1.58 µM [falling, full curve, poor fit]
Cc1ccc2cc(CN(Cc3ccco3)C(=S)NCC3CCCO3)c(=O)[nH]c2c1C (centres undefined)		14.1 µM [rising, single point]
CCOC(=O)Cc1n[nH]c(=O)c2ccccc12	2.82 µM [rising, full curve]	
Fc1cccc(CN2CCc3nc(Nc4ccc5c(c4)OCCO5)ncc3C2)c1F	2.82 µM [falling, partial curve, poor fit]	
COc1ccc(-c2csc3ncnc(Nc4ccccc4)c23)cc1		3.98 µM [rising, partial curve]
Cc1ccc(CSC2=NC(C)(C)Nc3ccccc32)c(C)c1	35.5 µM [falling, partial curve, poor fit]	35.5 µM [falling, partial curve, poor fit]
Cc1cc(Sc2nc(N(C)C)nc(N(C)C)n2)nc(Cl)n1	0.0398 µM [rising, full curve, poor fit]	
CCOC(=O)c1c(S(=O)(=O)N2CCCC(C(=O)Nc3cccc(CC)c3)C2)c(C)n(CC)c1C (centres undefined)	0.891 µM [falling, full curve, poor fit]	1.26 µM [falling, partial curve, poor fit]
Fc1ccccc1N1CCN(C(c2ccccn2)c2nnnn2C2CCCCC2)CC1 (centres undefined)	12.6 µM [rising, single point]	12.6 µM [rising, single point]
Cc1c(NC(=O)Cc2ccc(Cl)cc2)cccc1-c1nc2cccnc2s1		35.5 µM [rising, single point]
CC(C)N1CCN(Cc2cccn2-c2cccnc2)CC1CCO (centres undefined)	15.8 µM [falling, partial curve, poor fit]	15.8 µM [falling, partial curve, poor fit]
Oc1cccc(/C=N/NC(=S)Nc2cccnc2)c1O	0.251 µM [rising, full curve]	17.8 µM [rising, partial curve]
O=C(COc1ccccc1)Nc1nnc(-c2ccco2)o1		0.0447 µM [falling, full curve, poor fit]
Cn1cc(CN(CCO)Cc2cccs2)c(-c2ccccc2F)n1	0.0501 µM [rising, full curve, poor fit]	
COc1cccc(CN(C(=O)Cc2c[nH]c3ccccc23)C(C(=O)NC2CCCCC2)c2ccc(C)o2)c1 (centres undefined)		12.6 µM [rising, partial curve]
Cc1cc(C)nc(SCC(=O)n2c3c(c4ccccc42)CCCC3)n1	3.16 µM [rising, single point]	

SMILES	AC50 [1]	AC50 [2]
O=C(CSc1nc(Nc2ccccc2)c2ccccc2n1)c1ccc(Cl)cc1	35.5 µM [falling, single point]	25.1 µM [falling, partial curve]
Cc1ccc(Cl)c(Nc2ccccc2C(=O)O)c1Cl	35.5 µM [falling, partial curve, poor fit]	22.4 µM [falling, partial curve] and 22.4 µM [rising, partial curve]
COc1cccc(NC(=O)c2ccc(-c3ccc([N+](=O)[O-])cc3)o2)c1		0.501 µM [falling, full curve, poor fit]
COc1cc(OC)cc(C(=O)NNC(=O)c2ccccn2)c1		17.8 µM [rising, partial curve]
CC(c1ccccc1)C1CC(=O)N(Cc2ccccc2)C1=O (centres undefined)	5.01 µM [rising, single point]	
COc1ccc(NC(=O)c2nn(C34CC5CC(CC(C5)C3)C4)cc2[N+](=O)[O-])cc1		35.5 µM [rising, single point]
COc1ccc(/C=c2\s/c(=C/C(=O)c3ccc(C)cc3)[nH]c2=O)cc1OC		11.2 µM [rising, partial curve]
COc1ccc(CNC(=S)Nc2cc(OC)ccc2OC)cc1	11.2 µM [rising, single point]	
COCCn1c(-c2ccc(Br)cc2)csc1=Nc1cccnc1		6.31 µM [rising, partial curve]
CCCP(=O)(CC(=O)N(CC)CC)c1ccccc1 (centres undefined)		5.62 µM [rising, single point]
CCN(CC)CCCNC(=O)c1ccc2c(c1)sc1nc(-c3ccc(C)cc3)cn12	35.5 µM [falling, single point]	
Cc1c(NC(=O)/C(C#N)=C/c2ccc(-c3ccccc3Cl)o2)c(=O)n(-c2ccccc2)n1C		11.2 µM [rising, partial curve, poor fit]
CC(=O)Nc1ccc(S(=O)(=O)Nc2cccc(-c3cn4c(n3)SCC4)c2)cc1	0.501 µM [rising, partial curve]	1.26 µM [rising, single point]
CCOc1cccc2sc(NC(=O)c3ccc(S(=O)(=O)N4CCCCC4C)cc3)nc12 (centres undefined)		3.55 µM [falling, full curve, poor fit]
O=C(NCCN1CCOCC1)c1cnn2c(-c3ccccc3)cc(-c3ccccc3)nc12	10 µM [falling, partial curve]	
NC(C(=O)O)C(O)c1ccc(O)c(O)c1 (centres undefined)	0.141 µM [falling, full curve, poor fit]	0.0794 µM [falling, full curve, poor fit]
Cc1cnc2ncc3sccc3c2c1	35.5 µM [rising, single point]	
CCOC(=O)c1c(C)[nH]c(C)c1S(=O)(=O)N1CCN(c2cc(Cl)ccc2C)CC1	20 µM [falling, partial curve, poor fit]	14.1 µM [falling, partial curve]
COc1ccc(NC(=O)C(c2cc3c(cc2[N+](=O)[O-])OCO3)N(C)Cc2ccccc2)cc1 (centres undefined)		14.1 µM [rising, partial curve]

SMILES	AC50 [1]	AC50 [2]
CCc1cccc(NC(=O)c2ccc3c(c2)N(Cc2cccc(Cl)c2)C(=O)c2ccccc2S3=O)c1 (centres undefined)	3.55 µM [falling, single point]	
Cc1[nH]c(=O)c(C(=O)/C=C/c2ccccc2F)c2c1CCCC2	6.31 µM [falling, full curve]	10 µM [falling, partial curve]
Cc1ccc(-c2cc(C(=O)NCc3ccc4c(c3)OCO4)[nH]n2)c(O)c1C	35.5 µM [rising, single point]	35.5 µM [rising, single point]
COc1cccc(NC(=S)NCCC(c2ccccc2)c2ccccc2)c1	35.5 µM [falling, single point]	12.6 µM [falling, partial curve]
Cc1ccccc1CN1CCCN(CC(=O)Nc2ccc(F)cc2)S1(=O)=O		0.01 µM [falling, full curve, poor fit]
COC(=O)c1c(C)nc2c(c(SC)nn2-c2ccccc2)c1N	2.82 µM [rising, single point]	
CC(=O)Oc1c(S(=O)(=O)c2ccccc2)c(C)nn1C(C)(C)C		35.5 µM [rising, single point]
CCCCSc1[nH]c(=O)c(C(=O)OCC)cc1C#N	35.5 µM [falling, single point]	
c1cc2c(cc1C1=Nn3c(nnc3C3CCCCC3)SC1)OCO2		22.4 µM [rising, single point]
Cn1c(-c2ccc(Cl)cc2)ccc(C#N)c1=O		22.4 µM [falling, single point]
CC(C)(C)NC(=O)c1cccc(NC(=O)c2ccc(NC(=O)c3ccco3)cc2)c1		20 µM [rising, single point]
COc1ccccc1CCn1c(=O)c(-c2cn(C)c3ccccc23)nc2cncnc21	5.01 µM [falling, full curve]	5.01 µM [falling, full curve]
CC1(C)CC(=O)C2=C(C1)N1C(=C(C#N)C2c2ccc(Cl)cc2)N=C(N)c2ccccc21 (centres undefined)		35.5 µM [rising, single point]
CCCNC(=O)COC(=O)c1ccccc1OCC(=O)Nc1ccc(Br)cc1	2.51 µM [rising, partial curve, poor fit]	
NC(=O)C1CCN(Cc2nc3c(Br)cc(Br)cc3c(=O)[nH]2)CC1	5.62 µM [falling, single point]	
CN(C)C1NC(=O)c2cc(-c3ccccc3)sc2N1 (centres undefined)	3.55 µM [rising, partial curve]	1.58 µM [rising, full curve]
CC(=O)C(Cl)C(=O)Nc1ccccc1 (centres undefined)		0.891 µM [rising, full curve, poor fit]
Cc1cc(C(=O)NCc2nc(-c3ccccc3)no2)ccc1[N+](=O)[O-]	2.51 µM [rising, partial curve, poor fit]	
CCCc1cc(=O)[nH]c(SCc2nc(-c3ccc(OCC)cc3)no2)n1	0.355 µM [rising, single point]	
